Key:
[1] = system: guinea-pig isolated atria; details: isoprenaline agonist, product at 10^-4 M
strips of rabbit aorta = test: Spasmolytic activity in vitro on strips of rabbit aorta with potassium chloride induced spasm; type: cell-based; details: Oryctolagus cuniculus, read-out: EC50 (relaxing 50% the strip of rabbit aorta)
Experimental: spasmolytic activity is determined evaluating the direct relaxant effect on the vasal smooth muscle in vitro on strips of rabbit aorta in which spasm was induced by potassium chloride according to the method described in Journ. of Pharm. and Exper. […] The products were added at sequentially cumulative molar doses and their activity indicated as Effective Concentration (EC50).

CC(C)NCC(O)COc1cccc2ccccc12 (centres unmarked) [Propanolol, reference compound]
DR4 (dose ratio of agonist EC50 in the presence and in the absence of the product) [1]: 6500
EC50 (strips of rabbit aorta): > 10 mM

Reference: US4324788A, “Alkoxyalkylidenhydrazinopridazines and process for their preparation” (I.S.F. S.p.A., priority 1979, dated 1982)
